# In the supplement of paper PMC12823440, “Inhibitors supercharge kinase turnover through native proteolytic circuits” (Nature, 2025):
# The chains behind the UniProt entries cited, without tags or fusion partners. Where a name states a change or a piece, a line headed by the entry shows the natural chain unless it says otherwise.
# UniProt P29317, whole entry: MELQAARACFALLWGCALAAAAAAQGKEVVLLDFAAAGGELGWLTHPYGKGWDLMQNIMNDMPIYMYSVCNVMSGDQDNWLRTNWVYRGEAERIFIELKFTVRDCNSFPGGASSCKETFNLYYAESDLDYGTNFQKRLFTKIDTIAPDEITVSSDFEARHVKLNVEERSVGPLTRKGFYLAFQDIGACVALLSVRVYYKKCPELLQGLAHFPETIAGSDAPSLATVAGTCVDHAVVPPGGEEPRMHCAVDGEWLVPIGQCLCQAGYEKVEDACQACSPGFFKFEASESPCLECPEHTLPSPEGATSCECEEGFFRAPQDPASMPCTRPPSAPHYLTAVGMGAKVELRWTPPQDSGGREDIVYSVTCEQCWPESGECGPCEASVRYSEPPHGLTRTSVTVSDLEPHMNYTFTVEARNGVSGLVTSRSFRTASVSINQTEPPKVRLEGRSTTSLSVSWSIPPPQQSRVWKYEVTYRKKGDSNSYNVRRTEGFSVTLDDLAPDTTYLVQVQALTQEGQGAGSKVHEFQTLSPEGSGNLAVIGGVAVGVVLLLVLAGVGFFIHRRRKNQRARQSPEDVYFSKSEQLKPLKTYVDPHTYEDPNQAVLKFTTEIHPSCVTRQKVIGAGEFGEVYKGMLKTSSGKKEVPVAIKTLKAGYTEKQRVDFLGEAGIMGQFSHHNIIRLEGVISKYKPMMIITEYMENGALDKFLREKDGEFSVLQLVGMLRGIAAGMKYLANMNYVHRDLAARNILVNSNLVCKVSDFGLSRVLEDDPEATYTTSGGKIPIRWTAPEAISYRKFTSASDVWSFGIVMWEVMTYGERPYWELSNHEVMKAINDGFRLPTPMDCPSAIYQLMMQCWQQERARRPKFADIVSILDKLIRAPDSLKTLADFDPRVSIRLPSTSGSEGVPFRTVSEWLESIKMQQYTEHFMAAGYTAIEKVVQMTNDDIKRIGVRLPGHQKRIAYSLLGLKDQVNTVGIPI
# UniProt P21860, whole entry: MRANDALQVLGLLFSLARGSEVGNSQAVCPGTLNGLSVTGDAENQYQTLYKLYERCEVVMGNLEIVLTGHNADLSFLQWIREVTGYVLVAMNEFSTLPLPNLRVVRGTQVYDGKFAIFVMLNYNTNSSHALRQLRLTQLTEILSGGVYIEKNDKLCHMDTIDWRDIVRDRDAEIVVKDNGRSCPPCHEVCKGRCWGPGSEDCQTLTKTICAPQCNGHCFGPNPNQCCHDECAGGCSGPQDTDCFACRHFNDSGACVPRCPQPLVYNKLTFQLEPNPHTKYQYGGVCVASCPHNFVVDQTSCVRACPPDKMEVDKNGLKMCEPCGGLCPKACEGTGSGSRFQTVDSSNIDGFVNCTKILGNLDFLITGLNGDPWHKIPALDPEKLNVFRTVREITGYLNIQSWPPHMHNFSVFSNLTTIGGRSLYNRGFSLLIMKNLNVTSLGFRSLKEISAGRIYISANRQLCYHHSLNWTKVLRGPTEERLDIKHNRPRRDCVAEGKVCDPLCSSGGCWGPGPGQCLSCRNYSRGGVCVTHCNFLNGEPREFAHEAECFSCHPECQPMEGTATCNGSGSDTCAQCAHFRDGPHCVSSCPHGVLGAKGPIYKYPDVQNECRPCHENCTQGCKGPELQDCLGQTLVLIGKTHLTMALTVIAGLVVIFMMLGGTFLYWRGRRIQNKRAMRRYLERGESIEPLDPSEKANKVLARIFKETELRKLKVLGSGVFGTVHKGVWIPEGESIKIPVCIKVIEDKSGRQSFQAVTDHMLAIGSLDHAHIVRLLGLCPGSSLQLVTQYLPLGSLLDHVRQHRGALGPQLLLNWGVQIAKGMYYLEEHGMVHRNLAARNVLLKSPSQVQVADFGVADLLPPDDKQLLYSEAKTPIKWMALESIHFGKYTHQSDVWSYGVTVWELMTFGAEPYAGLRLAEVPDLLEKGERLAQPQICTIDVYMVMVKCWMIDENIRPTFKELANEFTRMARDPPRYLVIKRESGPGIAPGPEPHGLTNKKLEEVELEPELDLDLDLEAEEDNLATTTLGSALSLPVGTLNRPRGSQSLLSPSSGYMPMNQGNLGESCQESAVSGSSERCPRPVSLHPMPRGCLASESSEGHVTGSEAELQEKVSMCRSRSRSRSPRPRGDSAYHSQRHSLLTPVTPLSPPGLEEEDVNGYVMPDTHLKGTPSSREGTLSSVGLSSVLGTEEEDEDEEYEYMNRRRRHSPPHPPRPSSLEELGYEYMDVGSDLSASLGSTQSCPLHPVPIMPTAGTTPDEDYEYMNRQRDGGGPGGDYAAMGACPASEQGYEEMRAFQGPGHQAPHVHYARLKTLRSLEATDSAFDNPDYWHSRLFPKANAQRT
# UniProt P36888, whole entry: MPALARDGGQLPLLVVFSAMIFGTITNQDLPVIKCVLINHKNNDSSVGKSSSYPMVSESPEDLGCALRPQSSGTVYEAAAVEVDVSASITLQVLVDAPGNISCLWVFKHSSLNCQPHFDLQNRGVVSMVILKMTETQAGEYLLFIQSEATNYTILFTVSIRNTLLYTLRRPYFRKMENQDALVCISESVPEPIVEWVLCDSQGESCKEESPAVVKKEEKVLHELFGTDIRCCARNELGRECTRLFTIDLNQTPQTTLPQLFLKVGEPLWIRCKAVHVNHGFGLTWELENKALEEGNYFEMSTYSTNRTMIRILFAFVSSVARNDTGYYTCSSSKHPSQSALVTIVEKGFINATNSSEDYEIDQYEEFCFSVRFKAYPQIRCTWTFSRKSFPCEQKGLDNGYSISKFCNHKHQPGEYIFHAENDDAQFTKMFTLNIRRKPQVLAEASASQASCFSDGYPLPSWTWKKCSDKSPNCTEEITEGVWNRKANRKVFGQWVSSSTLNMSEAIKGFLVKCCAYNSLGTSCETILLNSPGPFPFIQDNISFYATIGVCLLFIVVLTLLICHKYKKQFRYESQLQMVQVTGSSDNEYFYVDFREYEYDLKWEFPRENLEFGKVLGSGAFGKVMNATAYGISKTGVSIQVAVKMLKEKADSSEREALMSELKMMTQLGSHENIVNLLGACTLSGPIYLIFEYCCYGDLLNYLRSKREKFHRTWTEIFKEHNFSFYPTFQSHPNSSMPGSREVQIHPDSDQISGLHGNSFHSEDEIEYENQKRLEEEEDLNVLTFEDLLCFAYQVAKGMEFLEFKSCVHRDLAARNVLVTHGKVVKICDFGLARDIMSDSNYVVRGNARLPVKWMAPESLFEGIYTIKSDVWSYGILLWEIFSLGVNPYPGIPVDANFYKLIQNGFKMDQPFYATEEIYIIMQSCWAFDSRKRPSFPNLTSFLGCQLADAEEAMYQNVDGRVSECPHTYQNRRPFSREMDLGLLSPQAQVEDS
# UniProt P06241, whole entry, looked up: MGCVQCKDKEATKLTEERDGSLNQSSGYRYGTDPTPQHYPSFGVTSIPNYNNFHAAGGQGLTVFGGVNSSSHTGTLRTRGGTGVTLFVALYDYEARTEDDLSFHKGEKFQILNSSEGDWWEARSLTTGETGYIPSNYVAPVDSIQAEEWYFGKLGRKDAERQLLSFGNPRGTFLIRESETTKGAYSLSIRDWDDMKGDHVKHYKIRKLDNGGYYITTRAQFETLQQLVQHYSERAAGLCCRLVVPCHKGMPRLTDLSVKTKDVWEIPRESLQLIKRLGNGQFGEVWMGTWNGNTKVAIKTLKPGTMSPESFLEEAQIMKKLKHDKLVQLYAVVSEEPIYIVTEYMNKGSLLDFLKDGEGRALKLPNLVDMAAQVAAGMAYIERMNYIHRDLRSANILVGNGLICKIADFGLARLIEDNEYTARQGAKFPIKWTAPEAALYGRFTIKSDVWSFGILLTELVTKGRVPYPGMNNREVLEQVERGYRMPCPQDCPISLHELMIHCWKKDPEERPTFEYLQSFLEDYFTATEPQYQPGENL
# UniProt P14616: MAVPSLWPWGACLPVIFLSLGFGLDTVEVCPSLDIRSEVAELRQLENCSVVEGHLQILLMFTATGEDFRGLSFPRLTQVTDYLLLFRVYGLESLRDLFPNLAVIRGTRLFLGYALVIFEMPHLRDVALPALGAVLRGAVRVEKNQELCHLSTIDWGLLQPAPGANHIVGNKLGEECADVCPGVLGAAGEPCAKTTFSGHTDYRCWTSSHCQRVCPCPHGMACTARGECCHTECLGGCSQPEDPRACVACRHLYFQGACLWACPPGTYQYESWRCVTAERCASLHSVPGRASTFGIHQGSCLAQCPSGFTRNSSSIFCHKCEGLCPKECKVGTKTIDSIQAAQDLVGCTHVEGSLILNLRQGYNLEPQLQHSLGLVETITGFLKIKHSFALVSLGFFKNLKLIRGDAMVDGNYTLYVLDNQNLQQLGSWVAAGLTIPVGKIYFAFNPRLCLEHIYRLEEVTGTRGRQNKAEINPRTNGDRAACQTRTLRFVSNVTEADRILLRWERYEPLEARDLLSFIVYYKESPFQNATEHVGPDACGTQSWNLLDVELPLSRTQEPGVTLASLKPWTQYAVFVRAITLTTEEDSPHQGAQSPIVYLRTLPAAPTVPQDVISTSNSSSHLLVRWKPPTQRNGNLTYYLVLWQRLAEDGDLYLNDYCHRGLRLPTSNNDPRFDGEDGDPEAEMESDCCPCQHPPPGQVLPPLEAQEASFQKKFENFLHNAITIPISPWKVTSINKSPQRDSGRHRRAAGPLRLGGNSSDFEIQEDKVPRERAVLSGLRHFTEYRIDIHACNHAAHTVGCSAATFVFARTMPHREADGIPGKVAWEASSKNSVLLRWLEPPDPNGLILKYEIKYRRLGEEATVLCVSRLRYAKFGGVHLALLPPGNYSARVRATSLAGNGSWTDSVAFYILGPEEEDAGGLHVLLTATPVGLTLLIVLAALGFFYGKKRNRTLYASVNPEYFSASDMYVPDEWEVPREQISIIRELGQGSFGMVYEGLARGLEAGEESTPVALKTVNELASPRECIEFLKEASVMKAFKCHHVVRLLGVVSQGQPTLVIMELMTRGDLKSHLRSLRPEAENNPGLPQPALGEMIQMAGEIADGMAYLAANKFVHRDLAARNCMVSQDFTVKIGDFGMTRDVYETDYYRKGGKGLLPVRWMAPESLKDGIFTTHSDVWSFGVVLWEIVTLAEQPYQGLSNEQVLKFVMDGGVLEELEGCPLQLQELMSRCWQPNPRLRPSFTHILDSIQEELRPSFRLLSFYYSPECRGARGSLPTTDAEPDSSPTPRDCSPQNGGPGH
# UniProt P06239: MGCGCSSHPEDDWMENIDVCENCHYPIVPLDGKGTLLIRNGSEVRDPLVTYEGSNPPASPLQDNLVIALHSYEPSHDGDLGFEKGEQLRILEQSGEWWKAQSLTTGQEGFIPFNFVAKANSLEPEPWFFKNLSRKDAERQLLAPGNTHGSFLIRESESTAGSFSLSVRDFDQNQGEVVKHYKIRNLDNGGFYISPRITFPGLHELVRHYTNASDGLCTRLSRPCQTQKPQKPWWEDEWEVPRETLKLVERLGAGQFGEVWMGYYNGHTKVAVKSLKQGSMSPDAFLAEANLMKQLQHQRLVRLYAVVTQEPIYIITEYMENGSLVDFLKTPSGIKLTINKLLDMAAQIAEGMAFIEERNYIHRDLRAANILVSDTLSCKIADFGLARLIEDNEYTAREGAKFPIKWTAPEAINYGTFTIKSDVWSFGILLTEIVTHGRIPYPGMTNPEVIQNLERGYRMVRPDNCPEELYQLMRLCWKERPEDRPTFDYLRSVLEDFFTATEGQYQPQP
# UniProt P53671: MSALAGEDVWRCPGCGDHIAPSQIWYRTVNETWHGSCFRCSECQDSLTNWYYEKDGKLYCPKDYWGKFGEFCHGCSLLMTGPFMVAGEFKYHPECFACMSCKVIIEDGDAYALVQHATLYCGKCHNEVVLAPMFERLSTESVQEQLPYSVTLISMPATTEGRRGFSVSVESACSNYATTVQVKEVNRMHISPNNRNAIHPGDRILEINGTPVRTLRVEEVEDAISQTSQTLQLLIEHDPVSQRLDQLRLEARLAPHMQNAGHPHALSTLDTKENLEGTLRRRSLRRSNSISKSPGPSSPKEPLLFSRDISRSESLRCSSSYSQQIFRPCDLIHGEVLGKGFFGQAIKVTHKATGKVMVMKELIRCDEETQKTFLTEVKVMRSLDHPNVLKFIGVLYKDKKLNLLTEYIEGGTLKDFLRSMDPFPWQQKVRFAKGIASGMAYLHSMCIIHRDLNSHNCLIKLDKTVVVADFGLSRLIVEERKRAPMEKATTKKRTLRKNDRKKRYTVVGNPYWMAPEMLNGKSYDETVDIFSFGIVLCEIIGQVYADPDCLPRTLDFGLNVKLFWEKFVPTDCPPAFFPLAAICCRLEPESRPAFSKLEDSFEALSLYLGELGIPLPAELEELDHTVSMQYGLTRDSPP
# Structures can show the parent of a compound that is named as a salt. The list shows a part of the results. The calls rarely recur for the same compound in another form.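 Kinases, fused to nanoluciferase, were expressed in K562 cells; luminescence was measured every 4 h from 2 to 18 h as percent of control (DMSO = 100%, positive control = 0%). A time point is decreased if signal falls significantly (2 sigma). Hits were called by the authors by a rule that is not shown; the count of time points alone does not decide it.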
# Experiments:
# Experiment in all cases: number of time points (of 5) at which kinase-Nluc abundance scored as decreased, DMSO-normalised (count); higher = more persistent destabilization
# Conditions in all cases: K562; 2-18 h
# EGFR_L861Q = EGFR_L861Q (UniProt P00533)
# EGFR_T790M = EGFR_T790M (UniProt P00533)
# EPHA2 = EPHA2 (UniProt P29317)
# ERBB3 = ERBB3 (UniProt P21860)
# [1] = biological target: ERBB4_R711C (clone: ERBB4_mut) (UniProt Q15303)
# ERN1 = ERN1 (UniProt O75460)
# FGFR1 = FGFR1 (UniProt P11362)
# FGFR2 = FGFR2 (UniProt P21802)
# FGFR3 = FGFR3 (UniProt P22607)
# FGR = FGR (UniProt P09769)
# FLT3 = FLT3 (UniProt P36888)
# FYN = FYN (UniProt P06241)
# GSK3A = GSK3A (UniProt P49840)
# HER2 = HER2 (UniProt P04626)
# INSRR = INSRR (UniProt P14616)
# IRAK3 = IRAK3 (UniProt Q9Y616)
# JAK1 = JAK1 (UniProt P23458)
# LCK = LCK (UniProt P06239)
# LIMK1 = LIMK1 (UniProt P53667)
# LIMK2 = LIMK2 (UniProt P53671)
Compound,number of time points (EGFR_L861Q),number of time points (EGFR_T790M),number of time points (EPHA2),number of time points (ERBB3),number of time points [1],number of time points (ERN1),number of time points (FGFR1),number of time points (FGFR2),number of time points (FGFR3),number of time points (FGR),number of time points (FLT3),number of time points (FYN),number of time points (GSK3A),number of time points (HER2),number of time points (INSRR),number of time points (IRAK3),number of time points (JAK1),number of time points (LCK),number of time points (LIMK1),number of time points (LIMK2)
O=C(/C=C/c1ccccc1)OC[C@H]1O[C@@H](O[C@@H]2OC=C[C@H]3[C@H](O)[C@@H]4O[C@]4(CO)[C@@H]23)[C@H](O)[C@@H](O)[C@@H]1O [Picroside I] (10 µM),0,0,0,0,0,0,0,0,0,0,0,0,0,0,0,0,0,0,0,0
Cc1n[nH]cc1-c1cc2nc([C@@H]3CC4CCN3CC4)[nH]c(=O)c2s1 [Simurosertib] (2.5 µM),0,0,0,0,0,0,0,0,0,0,0,0,0,0,0,0,0,0,0,0
C=CC(=O)Nc1ccc2[nH]c(=O)n(C3CCN(Cc4ccc(-c5nc6cc[nH]c(=O)c6cc5-c5ccccc5)cc4)CC3)c2c1 [Borussertib] (10 µM),0,0,0,0,0,0,0,0,0,0,0,0,0,0,0,0,0,0,1,0
C[C@H](Nc1ncnc2[nH]cnc12)c1nc2ccc(F)cc2c(=O)n1-c1ccccc1 [Acalisib] (10 µM),0,0,0,0,0,0,0,0,0,0,0,0,0,0,0,0,0,0,0,0
CC(C)=CC[C@@H](OC(=O)CC(C)(C)O)C1=CC(=O)c2c(O)ccc(O)c2C1=O [β-Hydroxyisovalerylshikonin] (2.5 µM),0,0,0,0,0,0,0,0,0,0,0,0,0,0,0,0,0,0,0,0
CC(=O)Oc1ccc(/C=C/c2cc(OC(C)=O)cc(OC(C)=O)c2)cc1 [Triacetylresveratrol] (10 µM),0,0,0,0,0,0,0,0,0,0,0,0,0,0,0,0,0,0,0,0
NCCc1cn(S(=O)(=O)c2c(Cl)nc3sccn23)c2ccccc12 (10 µM),0,0,0,0,0,0,0,0,0,0,0,0,0,0,0,0,0,0,0,0
C[C@@H]1CC[C@H]2[C@@H](C)C(=O)O[C@@H]3O[C@@]4(C)CC[C@@H]1[C@]32OO4 [Artemisinin] (10 µM),0,0,0,0,0,4,0,0,0,0,0,0,0,0,0,0,0,0,0,0
Nc1ncnc2c1ncn2[C@@H]1O[C@@H]2COP(O)(=S)O[C@H]2[C@H]1O (stereo not given in full) [Sp-cAMPS (sodium salt)] (10 µM),0,0,0,0,0,0,0,0,0,0,0,0,0,0,0,0,0,0,0,0
CCCCCCCCCCCCCCCCOC[C@H](COP(=O)([O-])OCC[N+](C)(C)C)OC(C)=O (10 µM),0,0,0,0,0,0,0,0,0,0,0,0,0,0,0,0,0,0,0,0
CC(=O)OC(C)(C)/C=C/C(=O)[C@](C)(O)[C@H]1[C@H](O)C[C@@]2(C)[C@@H]3CC=C4[C@@H](C=C(O)C(=O)C4(C)C)[C@]3(C)C(=O)C[C@]12C [Cucurbitacin E] (2.5 µM),3,1,0,3,4,0,1,3,0,0,3,4,0,1,0,2,0,0,0,3
Cc1ccccc1-n1c(Cn2cnc3c(N)ncnc32)nc2cccc(C)c2c1=O (10 µM),0,0,0,0,0,0,0,0,0,0,0,0,0,0,0,0,0,0,0,0
